# US6667025B2 (Mitsubishi Pharma Corporation, priority 1997, dated 2003)
# Some results were stated once for a whole list of compounds, not compound by compound.
# Test system: renal allograft, mongrel donors and beagle recipients
# Experiment: Canine renal allograft survival
# Format: in vivo
# Conditions: 5 mg/kg
# Description: Kidneys from mongrel donor dogs were transplanted into beagle dogs in the right iliac fossa, and the recipient dogs were then nephrectomized bilaterally. Levels of serum creatine and blood urea nitrogen were measured to monitor survival. Graft rejection was defined as the day when either serum creatine levels increased to more than 10.0 mg/dL or blood urea nitrogen levels elevated to more than 200 mg/dL. […] The survival curves are illustrated in FIG. 6.
compound,measurement,value
"CCCCCCCCc1ccc(CCC(N)(CO)CO)cc1.Cl [FTY720, 2-amino-2[2-(4-octylphenyl)ethyl]propane-1,3-diol hydrochloride]",time to elevation of serum creatinine,≤ 14 days
